Experimental data reported in paper PMC10551643.
No constants are given. Whether binding was seen depends on the method and setting. Binding seen in cells or lysates may run through a third protein. Some binding calls cover weakened binding; strength is not graded here.

By UniProt entry, the sequences of proteins in these tests, tags left out.
UniProt P35222: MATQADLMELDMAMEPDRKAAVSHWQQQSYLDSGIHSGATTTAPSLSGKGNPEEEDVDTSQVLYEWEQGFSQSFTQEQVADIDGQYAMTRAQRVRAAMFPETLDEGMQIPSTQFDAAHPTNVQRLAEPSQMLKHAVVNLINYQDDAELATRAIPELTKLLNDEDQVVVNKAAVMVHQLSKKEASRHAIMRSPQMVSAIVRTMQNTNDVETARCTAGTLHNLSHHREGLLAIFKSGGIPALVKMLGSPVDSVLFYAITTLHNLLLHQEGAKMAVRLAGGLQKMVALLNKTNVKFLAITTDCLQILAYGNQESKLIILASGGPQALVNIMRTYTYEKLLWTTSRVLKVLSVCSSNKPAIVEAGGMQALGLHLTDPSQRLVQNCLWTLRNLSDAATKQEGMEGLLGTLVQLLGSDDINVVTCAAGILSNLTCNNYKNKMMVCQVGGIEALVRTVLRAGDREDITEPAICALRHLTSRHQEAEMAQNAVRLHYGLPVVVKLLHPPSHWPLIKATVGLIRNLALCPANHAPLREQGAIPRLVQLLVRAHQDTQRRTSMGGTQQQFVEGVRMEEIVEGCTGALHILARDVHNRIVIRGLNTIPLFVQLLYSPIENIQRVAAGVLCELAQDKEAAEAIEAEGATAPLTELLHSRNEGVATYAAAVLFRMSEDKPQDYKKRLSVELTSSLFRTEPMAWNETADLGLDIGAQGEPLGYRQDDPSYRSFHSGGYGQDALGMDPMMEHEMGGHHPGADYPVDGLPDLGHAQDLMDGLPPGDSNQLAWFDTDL
UniProt P46937: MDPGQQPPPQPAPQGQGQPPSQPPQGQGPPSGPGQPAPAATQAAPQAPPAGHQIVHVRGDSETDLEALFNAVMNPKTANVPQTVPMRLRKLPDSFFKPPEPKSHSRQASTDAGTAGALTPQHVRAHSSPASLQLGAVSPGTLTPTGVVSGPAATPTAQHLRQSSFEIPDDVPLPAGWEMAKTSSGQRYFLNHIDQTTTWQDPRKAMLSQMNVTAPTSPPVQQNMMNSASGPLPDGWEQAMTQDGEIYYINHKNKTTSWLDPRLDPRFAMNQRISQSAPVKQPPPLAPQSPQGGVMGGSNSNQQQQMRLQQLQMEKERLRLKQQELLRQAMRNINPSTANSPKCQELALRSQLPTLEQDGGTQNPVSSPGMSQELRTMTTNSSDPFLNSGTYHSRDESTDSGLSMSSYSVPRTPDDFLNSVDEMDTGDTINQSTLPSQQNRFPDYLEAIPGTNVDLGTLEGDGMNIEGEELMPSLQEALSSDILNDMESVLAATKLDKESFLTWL

T1: MUC13 (endogenous) (human (endogenous in SW620, HT29, HCT116, HPAF-II, SW480)) (UniProt Q9H3R2)
T1 sequence: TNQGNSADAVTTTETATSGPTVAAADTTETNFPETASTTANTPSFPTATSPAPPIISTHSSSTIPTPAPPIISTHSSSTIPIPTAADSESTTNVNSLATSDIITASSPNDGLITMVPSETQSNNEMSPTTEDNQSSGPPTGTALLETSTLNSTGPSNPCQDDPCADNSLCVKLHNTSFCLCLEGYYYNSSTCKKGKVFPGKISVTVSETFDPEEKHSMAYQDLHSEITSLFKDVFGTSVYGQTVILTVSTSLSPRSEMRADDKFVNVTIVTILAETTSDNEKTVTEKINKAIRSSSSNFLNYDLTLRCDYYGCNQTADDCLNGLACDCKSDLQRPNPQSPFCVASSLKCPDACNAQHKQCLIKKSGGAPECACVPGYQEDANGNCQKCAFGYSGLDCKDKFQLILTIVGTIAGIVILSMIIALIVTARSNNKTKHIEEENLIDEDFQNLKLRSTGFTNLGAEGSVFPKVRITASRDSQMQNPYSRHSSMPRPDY


How the values were obtained:
[1] = molecular target: T1, MUC13 (endogenous) (human (endogenous in SW620, HT29, HCT116, HPAF-II, SW480)); test: co-IP; reverse co-IP: immunoprecipitation with anti-MUC13 antibody, YAP1 detected; SW620 cells
[2] = molecular target: β-catenin (endogenous) (human (endogenous in SW480, SW620)) (UniProt P35222); test: proximity ligation; Duolink in situ PLA on cryosections of cryofixed cells 36 h after anoikis induction; mouse and rabbit primary antibody pairs; SW480+Vec, SW480+MUC13, SW620+shCtrl, SW620+shMUC13 (MUC13 knockdown)
[3] = molecular target: YAP1 (endogenous) (human (endogenous in SW620, HT29, HCT116, HPAF-II, SW480)) (UniProt P46937); test: as above
[4] = molecular target: YAP1 (endogenous) (human (endogenous in SW620, HT29, HCT116, HPAF-II, SW480)) (UniProt P46937); test: co-IP; immunoprecipitation with anti-YAP1 antibody, immunoblot for MUC13; SW620, HT29, HCT116 and HPAF-II cells

Row | Molecule | binding [1] | binding [2] | binding [3] | binding [4]
1 | YAP1 (endogenous) (from UniProt P46937 1-504) | binds |  |  | 
2 | MUC13 (ectopic, lentiviral expression in SW480 cells) (protein, UniProt Q9H3R2 19-512) TNQGNSADAVTTTETATSGPTVAAADTTETNFPETASTTANTPSFPTATSPAPPIISTHSSSTIPTPAPPIISTHSSSTIPIPTAADSESTTNVNSLATSDIITASSPNDGLITMVPSETQSNNEMSPTTEDNQSSGPPTGTALLETSTLNSTGPSNPCQDDPCADNSLCVKLHNTSFCLCLEGYYYNSSTCKKGKVFPGKISVTVSETFDPEEKHSMAYQDLHSEITSLFKDVFGTSVYGQTVILTVSTSLSPRSEMRADDKFVNVTIVTILAETTSDNEKTVTEKINKAIRSSSSNFLNYDLTLRCDYYGCNQTADDCLNGLACDCKSDLQRPNPQSPFCVASSLKCPDACNAQHKQCLIKKSGGAPECACVPGYQEDANGNCQKCAFGYSGLDCKDKFQLILTIVGTIAGIVILSMIIALIVTARSNNKTKHIEEENLIDEDFQNLKLRSTGFTNLGAEGSVFPKVRITASRDSQMQNPYSRHSSMPRPDY |  | binds | binds | 
3 | MUC13 (endogenous) (protein, UniProt Q9H3R2 19-512) TNQGNSADAVTTTETATSGPTVAAADTTETNFPETASTTANTPSFPTATSPAPPIISTHSSSTIPTPAPPIISTHSSSTIPIPTAADSESTTNVNSLATSDIITASSPNDGLITMVPSETQSNNEMSPTTEDNQSSGPPTGTALLETSTLNSTGPSNPCQDDPCADNSLCVKLHNTSFCLCLEGYYYNSSTCKKGKVFPGKISVTVSETFDPEEKHSMAYQDLHSEITSLFKDVFGTSVYGQTVILTVSTSLSPRSEMRADDKFVNVTIVTILAETTSDNEKTVTEKINKAIRSSSSNFLNYDLTLRCDYYGCNQTADDCLNGLACDCKSDLQRPNPQSPFCVASSLKCPDACNAQHKQCLIKKSGGAPECACVPGYQEDANGNCQKCAFGYSGLDCKDKFQLILTIVGTIAGIVILSMIIALIVTARSNNKTKHIEEENLIDEDFQNLKLRSTGFTNLGAEGSVFPKVRITASRDSQMQNPYSRHSSMPRPDY |  |  | binds | binds
